# According to patent US20240009436A1, “LOCALIZED […] OF […] […] AGENTS USING FOCUSED ULTRASOUND” (priority 2020, published 2024):
# Test: Spreading/diffusion of muscimol in rat brain (estimates and literature)
# Conditions: within 20 mins, interstitial space
smiles,measurement,value
NCc1cc(=O)[nH]o1 [muscimol],diffusion distance in tissue,≤ 1 mm
